# Drug screen on melanoma cell lines: apoptosis marker

Values as published with doi:10.1371/journal.pone.0140310, rounded.

Drugs:
perifosine: CCCCCCCCCCCCCCCCCCOP(=O)([O-])OC1CC[N+](C)(C)CC1 at 2 µM
A-769662: N#Cc1c(O)c2c(-c3ccc(-c4ccccc4O)cc3)csc2[nH]c1=O at 10 µM
BMS-536924: Cc1cc(N2CCOCC2)cc2[nH]c(-c3c(NC[C@@H](O)c4cccc(Cl)c4)cc[nH]c3=O)nc12 at 1 µM
bortezomib: CC(C)C[C@H](NC(=O)[C@H](Cc1ccccc1)NC(=O)c1cnccn1)B(O)O at 0.005 µM
OSI-906: C[C@]1(O)C[C@@H](c2nc(-c3ccc4ccc(-c5ccccc5)nc4c3)c3c(N)nccn32)C1 at 2 µM
temozolomide: Cn1nnc2c(C(N)=O)ncn2c1=O at 10 µM
pazopanib: Cc1ccc(Nc2nccc(N(C)c3ccc4c(C)n(C)nc4c3)n2)cc1S(N)(=O)=O at 2 µM
PD173074: CCN(CC)CCCCNc1ncc2cc(-c3cc(OC)cc(OC)c3)c(NC(=O)NC(C)(C)C)nc2n1 at 0.5 µM
AS-252424: O=C1NC(=O)/C(=C/c2ccc(-c3ccc(F)cc3O)o2)S1 at 5 µM
Src-I1: COc1cc2ncnc(Nc3ccc(Oc4ccccc4)cc3)c2cc1OC at 10 µM

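The test systems are human melanoma cell lines, treated with a pair of drugs for 72 h and then stained and imaged. The read-out is the fraction of cleaved-PARP-positive nuclei, in % of that fraction in the DMSO control; 200 means twice the control level of this apoptosis marker. Every drug was used at one fixed concentration, the higher of two screened. These are primary screening values without error estimates. The marker varies much from line to line, for technical or biological reasons.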 An unselected part of the screen is shown. A dash means that no value is listed here.

| Pair | A101D | LOX IMVI | WM115 | SK-MEL-2 | COLO 829 | C32 | A2058 | SK-MEL-30 | WM3526 | IPC-298 | COLO 800 | MEL-HO | A375 | SK-MEL-28 |
|---|---|---|---|---|---|---|---|---|---|---|---|---|---|---|
| PD173074 and OSI-906 | 59.0 | 282 | 180 | 52.0 | 68.9 | 166 | 98.4 | 52.5 | 142 | 80.9 | 249 | 38.2 | 208 | 96.3 |
| BMS-536924 and Src-I1 | 216 | 105 | 80.2 | 340 | 71.4 | 91.7 | 53.8 | 40.4 | 457 | 272 | 91.8 | 35.3 | 121 | 73.3 |
| perifosine and Src-I1 | 320 | 220 | 61.1 | 96.6 | 82.8 | 183 | 89.8 | 103 | 243 | 262 | 69.6 | 272 | 49.1 | 98.8 |
| perifosine and OSI-906 | 198 | 148 | 411 | 30.8 | 73.9 | 448 | 107 | 87.0 | 154 | 189 | 177 | 98.2 | 111 | 142 |
| A-769662 and AS-252424 | 124 | 105 | 126 | 23.5 | 146 | 85.0 | 77.1 | 59.7 | 49.7 | 109 | 63.7 | 102 | 49.2 | 117 |
| BMS-536924 and pazopanib | 205 | 50.7 | 180 | 119 | 117 | 234 | 214 | 116 | 113 | 88.3 | 389 | 76.9 | - | 44.2 |
| Src-I1 and PD173074 | 44.6 | 212 | 132 | 102 | 63.7 | 95.7 | 69.5 | 31.6 | 153 | 55.1 | 215 | 114 | 10.4 | 83.8 |
| AS-252424 and perifosine | 64.4 | 83.5 | 111 | 74.8 | 69.2 | 89.9 | 121 | 120 | 273 | 246 | 95.3 | 89.7 | 77.4 | 76.1 |
| A-769662 and temozolomide | 35.3 | 62.8 | 46.7 | 50.1 | 403 | 174 | 675 | 129 | 42.8 | 109 | 156 | 116 | 208 | 912 |
| BMS-536924 and temozolomide | 166 | 269 | 155 | 113 | 97.8 | 323 | 318 | 99.3 | 187 | 64.1 | 96.7 | 66.8 | - | 445 |
| temozolomide and pazopanib | 81.2 | 188 | 198 | 151 | 197 | 24.9 | 470 | 64.7 | 58.7 | 131 | 130 | 142 | 104 | 358 |
| Src-I1 and temozolomide | 180 | 140 | 156 | 47.6 | 61.6 | 90.7 | 403 | 74.5 | 233 | 56.9 | 102 | 130 | 28.5 | 535 |
| Src-I1 and bortezomib | 5080 | 33.2 | 936 | 899 | 3310 | 949 | 1920 | 430 | 1250 | 4160 | 103 | 228 | 74.6 | 133 |
| pazopanib and A-769662 | 81.7 | 36.0 | 51.5 | 61.8 | 74.9 | 75.1 | 94.0 | 75.5 | 93.9 | 67.5 | 20.4 | 93.4 | 56.7 | 61.1 |
| BMS-536924 and perifosine | 132 | 47.5 | 40.6 | 187 | 45.8 | 70.7 | 141 | 45.7 | 64.0 | 52.6 | 106 | 67.8 | - | 40.9 |
| PD173074 and A-769662 | 44.8 | 110 | 51.5 | 65.3 | 52.9 | 92.5 | 68.4 | 110 | 47.6 | 60.1 | 168 | 24.4 | 50.5 | 150 |
| Src-I1 and A-769662 | 102 | 39.1 | 165 | 57.5 | 86.1 | 97.4 | 75.4 | 30.4 | 119 | 108 | 112 | 49.2 | 17.1 | 213 |
| temozolomide and AS-252424 | 138 | 97.9 | 117 | 75.2 | 158 | 103 | 322 | 242 | 104 | 71.9 | 70.7 | 50.9 | 25.2 | 845 |
| temozolomide and perifosine | 68.5 | 158 | 208 | 148 | 152 | 33.7 | 498 | 108 | 92.4 | 90.7 | 155 | 147 | 49.9 | 243 |
| A-769662 and OSI-906 | 49.9 | 51.9 | 80.7 | 96.7 | 118 | 70.0 | 130 | 87.5 | 75.3 | 378 | 82.0 | 379 | 123 | 201 |
| Src-I1 and AS-252424 | 67.7 | 58.5 | 50.9 | - | 104 | 79.7 | 70.2 | 42.9 | 133 | 58.0 | 167 | 119 | 18.2 | 139 |
| bortezomib and AS-252424 | 942 | 354 | 187 | 39.6 | 3310 | 267 | 1420 | 489 | 1810 | 5220 | 60.2 | 96.7 | 98.4 | 162 |
| perifosine and bortezomib | 1550 | 312 | 4210 | 323 | 4170 | 608 | 2180 | 2580 | 2310 | 8800 | 231 | 198 | 141 | 230 |
| pazopanib and OSI-906 | 147 | 150 | 62.9 | 36.3 | 78.9 | 48.9 | 109 | 111 | 82.1 | 86.6 | 78.7 | 107 | 131 | 282 |
| AS-252424 and OSI-906 | 192 | 43.4 | 155 | 100 | 108 | 93.8 | 91.0 | 89.8 | 114 | 52.7 | 201 | 97.5 | 105 | 130 |
| AS-252424 and BMS-536924 | 41.2 | 106 | 88.3 | 174 | 61.0 | 102 | 148 | 94.0 | 172 | 72.2 | 118 | 96.1 | 78.6 | 53.1 |
| A-769662 and bortezomib | 155 | 125 | 660 | 324 | 3520 | 613 | 4500 | 407 | 2860 | 6920 | 145 | 141 | 71.6 | 137 |
| BMS-536924 and PD173074 | 110 | 46.1 | 105 | 241 | 56.0 | 199 | 138 | 140 | 196 | 94.0 | 223 | 48.5 | 65.5 | 95.4 |
| bortezomib and PD173074 | 1190 | 213 | 170 | - | 1760 | 413 | 1290 | 510 | 1040 | 749 | 81.3 | 78.1 | 51.6 | 76.6 |
| temozolomide and PD173074 | 58.4 | 164 | 203 | 127 | 103 | 79.7 | 239 | 183 | 35.0 | 66.1 | 151 | 43.0 | 27.9 | 260 |
| OSI-906 and temozolomide | 90.8 | 73.2 | 65.1 | 163 | 87.5 | 170 | 399 | 151 | 359 | 71.2 | 219 | 71.0 | 88.0 | 357 |
| pazopanib and bortezomib | 435 | 360 | 6950 | 323 | 3910 | 2040 | 1780 | 1210 | 3230 | 5060 | 66.6 | 212 | 106 | 171 |
| pazopanib and Src-I1 | 271 | 217 | 273 | 108 | 116 | 86.3 | 110 | 134 | 85.2 | 123 | 61.6 | 198 | 49.3 | 219 |

Once more, the final 4:

| Pair | A101D | LOX IMVI | WM115 | SK-MEL-2 | COLO 829 | C32 | A2058 | SK-MEL-30 | WM3526 | IPC-298 | COLO 800 | MEL-HO | A375 | SK-MEL-28 |
|---|---|---|---|---|---|---|---|---|---|---|---|---|---|---|
| temozolomide and PD173074 | 58.4 | 164 | 203 | 127 | 103 | 79.7 | 239 | 183 | 35.0 | 66.1 | 151 | 43.0 | 27.9 | 260 |
| OSI-906 and temozolomide | 90.8 | 73.2 | 65.1 | 163 | 87.5 | 170 | 399 | 151 | 359 | 71.2 | 219 | 71.0 | 88.0 | 357 |
| pazopanib and bortezomib | 435 | 360 | 6950 | 323 | 3910 | 2040 | 1780 | 1210 | 3230 | 5060 | 66.6 | 212 | 106 | 171 |
| pazopanib and Src-I1 | 271 | 217 | 273 | 108 | 116 | 86.3 | 110 | 134 | 85.2 | 123 | 61.6 | 198 | 49.3 | 219 |